The other results are listed elsewhere or left out.
B1: il10ra_site1_normal_mot_HHH_b1_06994_000000193_0001_40_55_H_._HHH_b2_06735_0001_0000100008_0000001_0_af2pred_0001 (protein)
chain: SSSSSEEERKLARAALRLAEEIYEAGNPEVAERLLRALAEILEKEGDEELLQEVERLLEELSSSS
B2: il10ra_site1_sap_26_mot_HHH_b2_06321_af2_000000133_0001_42_55_H_._HHH_b2_07191_af2_0001_0000100003_0000001_0_0001 (protein)
chain: SSSSSNEERAKEAAELMLRAAKQLDDPEYVRMALRFALHLARYANDEELEEEIEELLKEYSSSSS
B3: il10ra_site1_sap_13_mot_HHH_b1_05357_000000034_0001_23_39_H_._HHH_b2_05608_0001_0000100002_0000001_0_0001 (protein)
chain: SSSSDQEEELAEAAHRLIEQALKHGDEEAARMLLWSLHFLAEELNDPELRELVEELRQRLDSSSS
B4: il10ra_site1_sap_13_mot_HHH_b1_05357_000000034_0001_23_39_H_._HHH_b2_03488_0002_0000100008_0000001_0_0001 (protein)
chain: SSSSDEIEKRIEELLEEYEELVEKGDPERAARVIMEALHLAFRVRDEEALHKIWRLLKEQSSSSS
B5: il10ra_site1_normal_mot_b26a303360aa2756ef5b79665ce52f45_0001_000000179_0001_1_11_H_._HHH_b2_02758_0001_0000200026_0000001_0 (protein)
chain: SSSSSSRREVYELIREALHIDDLEEAREVLEEALELAKEAGDFVLRFSVEHLLRVLEEASSSSSS
B6: il10ra_site1_normal_mot_HHH_b1_01879_000000050_0001_1_18_H_._HHH_b2_01804_0001_0000300022_0000001_0_af2pred_0001 (protein)
chain: SSSSDLEEEVEKAKEEAEELLKRGNEEEAQELLFKIQIKAYQNNNRELARELAELIIEILRSSSS
B7: il10ra_site1_sap_29_mot_0750aae41c39e4229e2ea8fa354cc919_0001_1_000000144_0001_37_51_H_._HHH_b2_05459_0001_0000500025_0000001_0_0001 (protein)
chain: SSSSSEASRFAYEVLRRASELARRGNPEEAERLLEEAEELVREAGNRVLLFVLEYVLKRLSSSSS
B8: il10ra_site1_normal_mot_HHH_b2_00345_af2_000000013_0001_42_56_H_._HHH_b1_07352_af2_0001_0000500035_0000002_0 (protein)
chain: SSSSNDVSRVVAEALRHAFRLSDRETLRELWEAFKEYIKEGDEEYKERLEELLEELRERLSSSSS
B9: il10ra_site1_sap_24_mot_39ab2cb694c8b9c1dc7e65c0d672c93e_0001_000000036_0001_53_65_H_._HHH_b1_01585_af2_0001_0000200009_0000001_0_0001 (protein)
chain: SSSSSESARKFVRIAEEVIRRAIELGDEEYAELALRFLKASAEAANDEEAEEVLRELEELLSSSS
B10: il10ra_site1_sap_21_mot_HHH_b1_06341_af2_000000167_0001_17_35_H_._HHH_b1_02683_af2_0001_0000500027_0000001_1_0001 (protein)
chain: SSSSSEAFRRVERLLKEVVELARNGNPEEAQKVAEEAQEVAEEAGNQLLRRAVEYLLRIVSSSSS
B11: il10ra_site1_sap_22_mot_HHH_b1_03314_af2_000000278_0001_42_55_H_._HHH_b1_01485_0001_0000400019_0000002_0_0001_af2pred_0001 (protein)
chain: SSSSSSSAEELVKLALEVAKLLTDEELVEEALEQAKRLARINNNDELEREIEEVEREISSSSSSS
B12: il10ra_site1_sap_10_mot_HHH_b1_00456_000000263_0001_1_17_H_._HHH_b2_00546_0001_0000100001_0000002_0_0001_af2pred_dldesign_0_af2pred (protein)
chain: SSSDPKQKVLDLLAKAARLAKEGKLEEARKLIEEAEKLAKELKDPKLIAAVNYYKKLLEELSSSS
B13: il10ra_site1_normal_mot_HHH_b2_02337_000000026_0001_38_52_H_._HHH_b1_05800_0001_0000400037_0000001_0 (protein)
chain: SSSSDAEEELEEILERLEEALEKGDQELFAELALRLVQLAIQNSDEEILQLLWELVQKFASSSSS
B14: il10ra_site1_sap_18_mot_HHH_b1_08356_000000013_0001_43_57_H_._HHH_b2_06261_0001_0000100001_0000001_0_0001_af2pred_0001 (protein)
chain: SSSSRDEEAAELAIRFIKFLLEQGDRRAVKILLRALKELAEKLNDEELKEEIKELHELLEELSSS
B15: il10ra_site1_sap_22_mot_HHH_b2_01018_af2_000000007_0001_1_20_H_._HHH_b2_04835_0001_0000100003_0000002_0_0001 (protein)
chain: SSSSTEAYEISRRALELLREGNEEEARELLEKLEKELEEKGNFNFLFSVRAALRAVEARERSSSS
B16: il10ra_site1_normal_mot_3af0db62db2b275566dae2e03bf881fa_0001_000000003_0001_37_50_H_._HHH_b2_08305_0001_0000500051_0000001_0_af2pred_0001 (protein)
chain: SSSSDVEEEVKELLAEAFQIRDPEERKEVLEQAERLAEENNDPRLKVLVKAAKFIIKAAFSSSSS
B17: il10ra_site1_normal_mot_HHH_b2_06054_000000214_0001_39_53_H_._HHH_b1_06319_0001_0000100007_0000001_0_af2pred_0001 (protein)
chain: SSSSSEEREEVEELFEEAERLLEEGDYRRVSHLIRRMAELARKGDDPEAVRLVAEITRKLFSSSS
B18: il10ra_site1_sap_28_mot_HHH_b1_00992_000000182_0001_23_40_H_._HHH_b2_06735_0001_0000200016_0000002_0_0001 (protein)
chain: SSSSSEERLEELVEELEELVERNDLERFLELAVEALRLAFQLGDEEVLRRLWELVREIAGSSSSS
B19: il10ra_site1_normal_mot_HHH_b1_05357_000000034_0001_23_39_H_._HHH_b1_02046_af2_0001_0000500016_0000003_0 (protein)
chain: SSSDEERAEELTKRIEELLERGDDEEAEELLRELAALAARLRDPELSHIVIRLYALLHELKSSSS

biological target: il10ra, Q13651; test: yeast display titration

Row | Binder | apparent Kd
1 | B1 | inactive: no binding seen
2 | B2 | inactive: no binding seen
3 | B3 | inactive: no binding seen
4 | B4 | inactive: no binding seen
5 | B5 | inactive: no binding seen
6 | B6 | inactive: no binding seen
7 | B7 | inactive: no binding seen
8 | B8 | inactive: no binding seen
9 | B9 | inactive: no binding seen
10 | B10 | inactive: no binding seen
11 | B11 | inactive: no binding seen
12 | B12 | inactive: no binding seen
13 | B13 | inactive: no binding seen
14 | B14 | inactive: no binding seen
15 | B15 | inactive: no binding seen
16 | B16 | inactive: no binding seen
17 | B17 | inactive: no binding seen
18 | B18 | inactive: no binding seen
19 | B19 | inactive: no binding seen

Retrieved one by one from the entries so far, two records:
Row | Binder | apparent Kd
10 | B10 | inactive: no binding seen
2 | B2 | inactive: no binding seen

Source: PMC10163288
